Source: patent US20110014213A1 (JURIDICAL FDN THE CHEMO SERO THERAP RES INS, published 2011)
Changes are numbered by the printed parent chain. No constants are given. Whether binding was seen depends on the method and setting. Some entries that bind do so weakly or less than the wild type. For some assays here: Tags and fused reporters may be left off the sequences shown.

B1: MA9-413 scFv-Fc (Fc fusion)
scFv: EVQLVESGGGVVRPGGSLRLSCAASGFAFGDYGMSWVRQAPGKGLEWVSGINWNGGSTGYADSVKGRFTTSRDNAKNSLYLQMNSLRAEDTALYYCARDENYDILTGYYYYGMDVWGQGTTVTVSSGGGGSGGGGSGGGGSQSVVTQPPSVSAAPGQKVTISCSGSSSNIGNNYVSWYQQLPGTAPKLLIYDNNKRPSGIPDRFSASKSGTSATLGITGLQTGDEADYYCGTWDSSLTVWAFGGGTKLTVLG
notes: Divalent scFv-Fc with mouse IgG1 Fc, expressed in CHO-DG44; also called ANM-2; not shown: Fc region of mouse IgG1 and its junction to the scFv
B2: MA9-418 scFv (scFv, not shown: small tags and cut ends)
scFv: B1 scFv with Y108A
B3: HA9-107 scFv-Fc (Fc fusion, not shown: a dimerising Fc or GST)
scFv: B1 scFv with G107N, Y108E
B4: HA9-143 scFv-Fc (Fc fusion, not shown: a dimerising Fc or GST)
scFv: B1 scFv with D31E, Y108H
B5: HA9-212 scFv-Fc (Fc fusion, not shown: a dimerising Fc or GST)
scFv: B1 scFv with D31E, K65Q, Y108N
B6: MA9-418 scFv-Fc (Fc fusion, not shown: a dimerising Fc or GST)
scFv: B1 scFv with Y108A
B7: MA9-413 scFv (scFv, not shown: small tags and cut ends)
scFv: B1 scFv
B8: HA9-212 IgG (antibody, V domains shown)
VH: EVQLVESGGGVVRPGGSLRLSCAASGFAFGEYGMSWVRQAPGKGLEWVSGINWNGGSTGYADSVQGRFTTSRDNAKNSLYLQMNSLRAEDTALYYCARDENYDILTGNYYYGMDVWGQGTTVTVSS
VL: QSVVTQPPSVSAAPGQKVTISCSGSSSNIGNNYVSWYQQLPGTAPKLLIYDNNKRPSGIPDRFSASKSGTSATLGITGLQTGDEADYYCGTWDSSLTVWAFGGGTKLTVLG
notes: VH joined to human IgG1 constant region; VL joined to 'human x chain constant region'; Tested as culture supernatant of COS-7 / FreeStyle 293-F cells

Assays:
[1] = target: T1, mouse α9 integrin (mouse, UniProt B8JK39 29-1036); assay: summary of earlier Cell ELISA / flow cytometry
T1 chain: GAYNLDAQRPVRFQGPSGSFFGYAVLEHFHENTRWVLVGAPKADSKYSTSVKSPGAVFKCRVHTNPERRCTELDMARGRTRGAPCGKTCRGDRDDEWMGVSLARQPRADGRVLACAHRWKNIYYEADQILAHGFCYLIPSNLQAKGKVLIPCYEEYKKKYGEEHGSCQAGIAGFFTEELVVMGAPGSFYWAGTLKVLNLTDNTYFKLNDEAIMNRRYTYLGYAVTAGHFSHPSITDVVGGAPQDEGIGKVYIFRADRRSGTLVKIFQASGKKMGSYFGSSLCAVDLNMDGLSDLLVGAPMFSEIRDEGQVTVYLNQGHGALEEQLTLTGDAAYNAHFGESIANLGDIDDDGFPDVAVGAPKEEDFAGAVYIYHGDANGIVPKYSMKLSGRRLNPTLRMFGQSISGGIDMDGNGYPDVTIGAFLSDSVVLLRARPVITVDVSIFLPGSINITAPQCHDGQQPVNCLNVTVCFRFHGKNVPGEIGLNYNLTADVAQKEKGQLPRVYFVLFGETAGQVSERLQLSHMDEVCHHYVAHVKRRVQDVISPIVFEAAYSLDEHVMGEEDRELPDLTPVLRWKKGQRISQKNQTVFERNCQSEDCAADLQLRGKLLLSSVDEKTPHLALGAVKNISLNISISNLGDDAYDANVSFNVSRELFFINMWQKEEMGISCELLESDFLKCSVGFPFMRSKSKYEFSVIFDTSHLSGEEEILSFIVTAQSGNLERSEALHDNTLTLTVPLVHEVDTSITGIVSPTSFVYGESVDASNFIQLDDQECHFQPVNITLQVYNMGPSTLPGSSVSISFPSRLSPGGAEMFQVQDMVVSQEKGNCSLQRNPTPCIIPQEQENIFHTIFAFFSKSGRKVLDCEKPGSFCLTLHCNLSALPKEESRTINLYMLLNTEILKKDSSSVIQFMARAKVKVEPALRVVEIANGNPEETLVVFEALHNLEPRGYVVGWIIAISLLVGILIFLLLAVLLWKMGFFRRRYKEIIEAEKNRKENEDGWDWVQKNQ

[2] = target: T1, mouse α9 integrin; assay: flow cytometry on SW480/mα9
[3] = target: T1, mouse α9 integrin; assay: Cell ELISA on SW480/mα9
[4] = target: T1, mouse α9 integrin; assay: Cell ELISA of scFv
[5] = target: T1, mouse α9 integrin; assay: summary of Examples 18-24; format not named (scFv-Fc taken)
[6] = target: T1, mouse α9 integrin; assay: competition Cell ELISA, serially diluted scFv-Fc; competitor MA9-413 phage antibody
[7] = target: T1, mouse α9 integrin; assay: Cell ELISA on CHO/mα9, anti-Etag detection
[8] = target: T1, mouse α9 integrin; assay: Cell ELISA of IgG in culture supernatant, anti-human IgG(Fc) detection

Row | Binder | binding [5] | binding [6] | further results
1 | B1 |  |  | binding [1]: binds; binding [2]: binds; binding [3]: binds
2 | B2 |  |  | binding [4]: binds
3 | B3 | binds | binds | 
4 | B4 | binds | binds | 
5 | B5 | binds | binds | 
6 | B6 | binds | binds | 
7 | B7 |  |  | binding [7]: binds
8 | B8 |  |  | binding [8]: binds
